# Assay results as given in the supplement of paper PMC7858590.
# Several values for one entry are separate records, joined by “and”; a condition that tells them apart may be missing. Equal values may be shown once. ± gives the standard deviation of the averaged measurements. The full ranking holds about 3,800 compounds; the median of “cell shape (eccentricity) Z-score vs DMSO control” is about 1.1, and the lowest 2% start at about -4.7. The list shows a part of the results.
# Test system: human monocyte-derived macrophages (M0)
# Test: cell shape (eccentricity) Z-score vs DMSO control; higher = more elongated, M2-like morphology
# Settings: 20 µM; 24 h; macrophage state: M0 (M-CSF)
row,Structure (SMILES),cell shape (Z-score)
1,CCOc1ccc(NC(C)=O)cc1,-2.72
2,C=CCNC1=C(Cl)C(=O)c2ccccc2C1=O,-1.29
3,c1ccc2sc(N3CCN(Cc4ccc5c(c4)OCO5)CC3)nc2c1,2.99
4,C#CCN(C)CCCOc1ccc(Cl)cc1Cl,0.86
5,CN(C)CCC=C1c2ccccc2C=Cc2ccccc21,2.48
6,CCN1CCC[C@H]1CNC(=O)c1c(O)c(Cl)cc(Cl)c1OC,3
7,COc1ccc(/C=C/C(=O)c2cc(O)ccc2O)cc1,2.34
8,Cc1ccc(C(=O)N(CCCN)[C@H](c2oc3cc(Cl)ccc3c(=O)c2Cc2ccccc2)C(C)C)cc1,3.83
9,C=C1CC(O)C2C(=C)C(=O)OC2C2C(=C)C(OC3OC(CO)C(O)C(OC(=O)/C=C/c4ccc(O)c(O)c4)C3O)CC12 (stereo not drawn),-1.95
10,O=C(NC1CCCCC1)NC1CCCCC1,0.784
11,COc1ccc2c(c1)C(=O)CC(c1ccccc1)O2 (stereo not drawn),3.59
12,CCCCNc1c(C(=O)OCC)c(C)nc2c1cnn2CC,0.725
13,CC(C)N1C[C@@H](C)[C@H](CN(C)Cc2ccc(Oc3ccccc3)cc2)Oc2c(NC(=O)c3ccncc3)cccc2C1=O,2.27
14,C[C@]12CC[C@H](O)CC1=CCC1C2CC[C@@]2(C)C1CC[C@@H]2C(=O)CO (stereo partly drawn),-2.5
15,C[C@@H]1O[C@@H](O[C@H]2[C@H](O)[C@@H](O[C@@H]3O[C@H](CO)[C@@H](O)[C@H](O)[C@H]3O)[C@H](O[C@H]3CC[C@@]4(C)C(=CC[C@@H]5C4CC[C@@]4(C)C5C[C@@H]5O[C@]6(CC[C@@](C)(CO)O6)[C@@H](C)[C@@H]54)C3)O[C@@H]2CO)[C@H](O)[C@H](O)[C@H]1O (stereo partly drawn),0.702
16,Clc1ccc(Nc2nnc(Cc3ccncc3)c3ccccc23)cc1,-1.51
17,C=C[C@@]1(C)CCC2C(=CCC3[C@]2(C)CCC[C@@]3(C)C(=O)O)C1 (stereo partly drawn),0.629
18,O=C(Oc1cccc2cccnc12)c1ccccc1,2.15
19,CC(C)=CCOc1c2ccoc2cc2oc(=O)ccc12,0.398
20,CN1CCN(C2Cc3ccccc3Sc3ccc(Cl)cc32)CC1 (stereo not drawn),-1.87
21,COC(=O)C[C@H]1C(C)(C)C(=O)[C@@H]2CC3C4=CC(=O)O[C@@H](c5ccoc5)[C@]4(C)CCC3[C@@]1(C)C2=O (stereo partly drawn),0.604
22,CCN(CC)CCNC(=O)c1c(C)[nH]c(/C=C2\C(=O)Nc3ccc(F)cc32)c1C,10.3 and 12.2
23,COc1ccc(C2CC(=O)c3c(O)cc(O[C@@H]4O[C@H](CO)[C@@H](OC5OCC(O)(CO)C5O)[C@H](O)[C@H]4O)cc3O2)cc1 (stereo partly drawn),2.04
24,CC(C)=CCOc1cc2oc(=O)ccc2cc1O,3.69
25,C[C@]12CC[C@@H]3c4ccc(O)cc4C[C@@H](CCCCCCCCCS(=O)CCCC(F)(F)C(F)(F)F)[C@H]3[C@@H]1CC[C@@H]2O (stereo partly drawn),1.44
26,Cc1cccc(C(=O)NCN2CCN(c3ccccc3C#N)CC2)c1,-1.37
27,O=C(O)c1ccc2c(c1)OCO2,3.18

row,Structure (SMILES),cell shape (Z-score)
1,CC12CCC3C(CCC4CC(O)CCC43C)C1CC=C2c1ccccc1 (stereo not drawn),2.22
2,COc1cc(O)c2c(=O)c(OC3OC(CO[C@@H]4O[C@@H](C)[C@H](O)[C@@H](O[C@@H]5O[C@@H](C)[C@H](O)[C@@H](O)[C@H]5O)[C@H]4O)C(O)C(O)C3O)c(-c3ccc(O)cc3)oc2c1 (stereo partly drawn),1.66
3,COc1cc2c(NC3CCN(C)CC3)nc(N3CCCN(C)CC3)nc2cc1OCCOCCN(C)C,2.13
4,CCCN(CC=CI)C1CCc2cccc(O)c2C1 (stereo not drawn),1.69
5,C[C@H](CO)N1C[C@H](C)[C@H](CN(C)C(=O)Nc2cc(F)ccc2F)Oc2cc(C#CC3CCCC3)ccc2S1(=O)=O,5.14
6,CCOc1cc2ncc(C#N)c(Nc3ccc(OCc4ccccn4)c(Cl)c3)c2cc1NC(=O)/C=C/CN(C)C,13.9
7,NCCCCCCCCCCNS(=O)(=O)c1cccc2c(Cl)cccc12,-0.874
8,COc1cc(C(=O)OC[C@@]2(O)CO[C@H](OC3C(CO)OC(OC(C)/C=C/C4(O)C(C)CC(O)CC4(C)C)C(O)C3O)[C@@H]2O)cc(OC)c1O (stereo partly drawn),-1.76
9,CC(=O)C1(O)Cc2c(O)c3c(c(O)c2C(OC2CC(N)C(O)C(C)O2)C1)C(=O)c1c(O)cccc1C3=O (stereo not drawn),2.12
10,C[C@H](/N=C(/NC#N)Nc1cccc2ncccc12)c1ccccc1,2.21
11,CC1CC(=O)[C@]2(O)C(C(=O)OCCc3ccc(O)c(O)c3)=CO[C@@H](O[C@@H]3O[C@H](CO)[C@@H](O)[C@H](O)[C@H]3O)[C@H]12 (stereo partly drawn),3.81
12,CCOC(=O)c1ncn2c1CN(C)C(=O)c1cc(F)ccc1-2,2.93
13,COc1cc(OC2CCN(C)CC2)ccc1Nc1ncc2c(n1)n(C1CCCC1)c(=O)n2C,3.21
14,CCC(=O)NC1CCc2cccc(OC)c2C1 (stereo not drawn),2.05
15,OCCN1C[C@H](O)[C@@H](O)[C@H](O)[C@H]1CO,-0.354
16,CC1OC(OCC2(C)C=C3C4CCC5C6(C)CCC(O)C(C)(COC7OC(CO)C(O)C(O)C7O)C6CCC5(C)C4(C)CCC3(C(=O)O)CC2)C(O)C(O)C1O (stereo not drawn),-0.575
17,COc1cc2[nH]c3ccccc3c2cc1C,1.1 ± 0.9
18,COc1ccc([C@@H](C)C(=O)c2ccc(O)cc2O)cc1,2.46
19,COC(=O)/C=C/c1ccc(OC)c(/C=C/C(C)(C)O)c1,-0.516
20,COc1ccc(-c2cc(=O)c3c(O)c(OC)c(O[C@@H]4O[C@H](CO)[C@@H](O)[C@H](O)[C@H]4O[C@@H]4O[C@@H](C)[C@H](O)[C@@H](O)[C@H]4O)cc3o2)cc1,2.34
21,CCCCCCCCCCCC[C@H](C(=O)O)[C@@H](C)C(=O)O,1.94
22,O=S(=O)(NCCNC/C=C/c1ccc(Br)cc1)c1cccc2cnccc12,7.14
23,CN(CCOP(=O)(O)O)C(=N)N,-0.65
24,COc1cc(O[C@@H]2O[C@H](CO[C@H]3OC[C@](O)(CO)[C@H]3O)[C@@H](O)[C@H](O)[C@H]2O)cc(OC)c1OC,1.07
25,C[C@H]1O[C@@H](O[C@H]2C[C@H]3C(=O)C[C@]4(C)C(=CCC5[C@@]6(C)CC[C@H](O[C@@H]7OC[C@@H](O)[C@H](O)[C@H]7O)[C@@](C)(C=O)C6CC[C@]54C)[C@@H]3CC2(C)C)[C@H](O)[C@@H](O)[C@@H]1O[C@@H]1O[C@H](C(=O)O)[C@@H](O)[C@H](O)[C@H]1O (stereo partly drawn),-1.43
26,COc1cc(CC(C)C(C)Cc2ccc(O)c(OC)c2)ccc1O (stereo not drawn),3.2

# Ordered by number of heavy atoms (smallest number first): 14 of the compounds above
row,Structure (SMILES),cell shape (Z-score)
15,OCCN1C[C@H](O)[C@@H](O)[C@H](O)[C@H]1CO,-0.354
17,COc1cc2[nH]c3ccccc3c2cc1C,1.1 ± 0.9
4,CCCN(CC=CI)C1CCc2cccc(O)c2C1 (stereo not drawn),1.69
19,COC(=O)/C=C/c1ccc(OC)c(/C=C/C(C)(C)O)c1,-0.516
21,CCCCCCCCCCCC[C@H](C(=O)O)[C@@H](C)C(=O)O,1.94
12,CCOC(=O)c1ncn2c1CN(C)C(=O)c1cc(F)ccc1-2,2.93
10,C[C@H](/N=C(/NC#N)Nc1cccc2ncccc12)c1ccccc1,2.21
1,CC12CCC3C(CCC4CC(O)CCC43C)C1CC=C2c1ccccc1 (stereo not drawn),2.22
22,O=S(=O)(NCCNC/C=C/c1ccc(Br)cc1)c1cccc2cnccc12,7.14
24,COc1cc(O[C@@H]2O[C@H](CO[C@H]3OC[C@](O)(CO)[C@H]3O)[C@@H](O)[C@H](O)[C@H]2O)cc(OC)c1OC,1.07
9,CC(=O)C1(O)Cc2c(O)c3c(c(O)c2C(OC2CC(N)C(O)C(C)O2)C1)C(=O)c1c(O)cccc1C3=O (stereo not drawn),2.12
5,C[C@H](CO)N1C[C@H](C)[C@H](CN(C)C(=O)Nc2cc(F)ccc2F)Oc2cc(C#CC3CCCC3)ccc2S1(=O)=O,5.14
16,CC1OC(OCC2(C)C=C3C4CCC5C6(C)CCC(O)C(C)(COC7OC(CO)C(O)C(O)C7O)C6CCC5(C)C4(C)CCC3(C(=O)O)CC2)C(O)C(O)C1O (stereo not drawn),-0.575
25,C[C@H]1O[C@@H](O[C@H]2C[C@H]3C(=O)C[C@]4(C)C(=CCC5[C@@]6(C)CC[C@H](O[C@@H]7OC[C@@H](O)[C@H](O)[C@H]7O)[C@@](C)(C=O)C6CC[C@]54C)[C@@H]3CC2(C)C)[C@H](O)[C@@H](O)[C@@H]1O[C@@H]1O[C@H](C(=O)O)[C@@H](O)[C@H](O)[C@H]1O (stereo partly drawn),-1.43
